From PMC11349236 come the findings set out here.

The chains behind the UniProt entries cited, without tags or fusion partners. Where a name states a change or a piece, a line headed by the entry shows the natural chain unless it says otherwise.
UniProt Q38D74: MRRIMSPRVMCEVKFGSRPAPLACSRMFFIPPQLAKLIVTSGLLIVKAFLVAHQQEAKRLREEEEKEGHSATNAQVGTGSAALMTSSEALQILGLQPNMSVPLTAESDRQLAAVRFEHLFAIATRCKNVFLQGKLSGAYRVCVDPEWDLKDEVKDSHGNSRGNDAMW
UniProt Q57YN2: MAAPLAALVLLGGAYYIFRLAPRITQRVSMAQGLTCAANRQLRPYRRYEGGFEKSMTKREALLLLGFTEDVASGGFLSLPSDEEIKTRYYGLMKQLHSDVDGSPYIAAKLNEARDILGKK
UniProt Q57UL9: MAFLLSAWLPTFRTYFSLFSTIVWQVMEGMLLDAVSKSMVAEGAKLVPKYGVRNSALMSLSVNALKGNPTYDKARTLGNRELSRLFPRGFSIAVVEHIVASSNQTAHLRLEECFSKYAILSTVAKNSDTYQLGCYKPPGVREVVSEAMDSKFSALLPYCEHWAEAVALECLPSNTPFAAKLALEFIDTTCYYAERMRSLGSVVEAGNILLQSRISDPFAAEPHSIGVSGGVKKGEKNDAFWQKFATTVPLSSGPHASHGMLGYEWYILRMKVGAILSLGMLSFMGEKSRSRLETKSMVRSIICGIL
UniProt Q57W16: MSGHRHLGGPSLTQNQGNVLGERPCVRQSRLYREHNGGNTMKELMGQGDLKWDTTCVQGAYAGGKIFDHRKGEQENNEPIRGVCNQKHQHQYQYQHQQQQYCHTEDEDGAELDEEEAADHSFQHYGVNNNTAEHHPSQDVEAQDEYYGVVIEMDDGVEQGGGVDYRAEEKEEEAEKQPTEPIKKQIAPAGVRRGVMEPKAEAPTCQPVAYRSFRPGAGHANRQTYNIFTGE

In assay [1] the target is TbPam16-HA (RNAi-resistant, full-length TbPam16 with C-terminal triple HA tag) (T. brucei) (UniProt Q38D74). Nature of the assay: affinity purification with mass spectrometry; postmix SILAC CoIP: CoIPs of uninduced and 2 days induced TbPam16-HA exclusive expressor cells done separately and eluates mixed afterwards; 1% digitonin, 20 mM Tris-HCl pH 7.4, 100 mM NaCl; anti-HA affinity matrix, 2 h, 4°C; LC-MS; detects stable and more transient interaction partners.

The target is the same in assay [2]. Kind of assay: affinity purification with mass spectrometry; premix SILAC CoIP: differentially labelled uninduced and 2 days induced TbPam16-HA exclusive expressor cells mixed before the CoIP; mitochondria-enriched pellets solubilised in 1% digitonin, 20 mM Tris-HCl pH 7.4, 100 mM NaCl; anti-HA affinity matrix, 2 h, 4°C; LC-MS; preferentially detects stable interaction partners.

Results are given in words; binding and its absence hold for the method and conditions named. Binding seen in cells or lysates may run through a third protein. A yes stands for co-enrichment or nearness to the bait. Other partners may have been found.

Turning to TbPam18 (from UniProt Q57YN2), the binding entry in assay [1] and in assay [2] was “binds” throughout.

On to TbCOQ9 (from UniProt Q57UL9), for which, in assay [2], the binding entry is “binds”. Take Tb927.8.4190 (from UniProt Q57W16): in assay [1], the binding entry is reported as “binds”.
